Experimental data reported in patent US20190105194A1, “METHODS OF TREATING A SUBJECT WITH AN OCULAR CONDITION RESPONSIVE TO STEROID THERAPY” (Aciont Inc., priority 2017, published 2019).

Tests used:
[1] = system: New Zealand White (NZW) rabbits; details: rabbit, in vivo
[2] = rabbit, in vivo
[3] = system: New Zealand White rabbits; details: rabbit, in vivo

## C[C@@H]1C[C@H]2[C@@H]3CCC4=CC(=O)C=C[C@]4(C)[C@@]3(F)[C@@H](O)C[C@]2(C)[C@@]1(O)C(=O)COP(=O)(O)O [DSP, dexamethasone sodium phosphate]
[1]; both
  duration of transient effect on IOP: ≤ 30 min
[1]; female
  duration of increase in IOP: less than 30 minutes
[2]
  drug plasma concentrations within 24 hours: approaching or under the lowest detection limit of 1 ng/mL
[3]
  appearance of cornea after each administration: appeared normal
